Source: patent US6358921B1, “Antimicrobial peptide compositions and method” (priority 1996, dated 2002)
Where two headings read alike, the source gives them in different places.

Assays:
[1] = system: gram negative microorganisms; assay type: cell-based; details: hemolytic activity/antibiotic activity
Source text: (§1) The following bacterial strains were utilized: Escherichia coli UB1005 (wt) and its antibiotic supersusceptible derivative DC2 (Clark, 1984); Excherichia coli SC9251 and its polymixin B rasistant mutant pmrA SC9252 (Peterson, et al., 1987) Pseudomonas aeruginosa H187 (wt) (Angus, et al., 1987) and its antibiotic-sensitive derivative H188 (Zimmerman, W, Antimicrob. Agents Chemother. 18: 94-100, 1980); methicillin sensitive Staphylococcus aureus K147 (Kreiswirth, et al., 1983); Staphylococcus aureus SAP0017, a methicillin resistant clinical isolate from Dr. A. Chow (University of British Columia); Bacillus subtilis, an environmental wt lab strain. Enterococcus faecalis are ATCC 29212 cells and Staphylococcus epidermidis was a clinical isolate from Dr. D. Speert (University of British Columbia). Antifungal activity was tested using a clinical lab isolate of Candida albicans. Salmonella typhinurium C57 and C610 (Fields, P.I., et al., Science 243: 1059-1062 (1989) Corynebacterium xerosis was an environmental isolate (University of British Columbia).
(§2) It is now apparent that agar-based assays severely underestimate antifungal activity as well as activity against gram negative microorganisms (Kondejewski, et al., 1996). Consequently, in the studies reported herein, a liquid-broth method was used to measure the antibiotic properties of the peptides. […] Briefly, cells were grown overnight at 37° C. in LB and diluted in the same medium. Serial dilutions of antibiotics were added to the microtitre plates in a volume of 100 μL followed by 10 μL of bacteria to give a final inoculum of 5×10^5 CFU/mL. Plates were incubated at 37° C. overnight and MICs determined as the lowest antibiotic concentration that inhibited growth.
(§3) The results from antimicrobial and hemolytic assays are combined to provide a “Therapeutic Index” (TI) for each peptide with respect to individual microorganisms. As reported herein, the TI is calculated as the hemolytic activity divided by the antimicrobial activity. The TI thus is a measure of specificity of the particular peptide for microbial membranes as opposed to human blood cell membranes. In the present studies, antimicrobial activities are reported as minimum inhibitory concentrations (MIC)—the lowest concentration of peptide (μg/ml) found to inhibit growth of the particular microbe. Hemolytic activity is reported as the concentration of peptide that effected complete lysis of blood cells after four hours. Thus, in the context of the present invention high TI values indicate microbial specificity and relative lack of toxicity.

[2] = system: gram positive microorganisms; assay type: cell-based; details: hemolytic activity/antibiotic activity
Source text: as §1, §2, §3

[3] = system: yeast; assay type: cell-based; details: hemolytic activity/antibiotic activity
Source text: as §1, §2, §3

[4] = system: E. coli UB1005; assay type: cell-based, Escherichia coli
Source text: as §1
as §2, with “growth. […]” for “growth.”

[5] = system: S. typhinurium C587; assay type: cell-based, Salmonella typhinurium
Source text: as §1
as §2, with “growth. […]” for “growth.”

[6] = system: S. typhinurium C610; assay type: cell-based, Salmonella typhinurium
Source text: as §1
as §2, with “growth. […]” for “growth.”

[7] = system: E. faecalis; assay type: cell-based, Enterococcus faecalis
Source text: as §1
as §2, with “growth. […]” for “growth.”

[8] = system: P. aeruginosa H187; assay type: cell-based, Pseudomonas aeruginosa
Source text: as §1, §2, §3

[9] = system: B. subtilis; assay type: cell-based, Bacillus subtilis
Source text: as §1
as §2, with “growth. […]” for “growth.”

[10] = system: S. aureus SAP0017; assay type: cell-based, Staphylococcus aureus
Source text: as §1, §2, §3

[11] = system: S. aureus K147; assay type: cell-based, Staphylococcus aureus
Source text: as §1, §2, §3

[12] = system: E. coli DC2; assay type: cell-based, Escherichia coli
Source text: as §1, §2, §3

[13] = system: S. epidermidis; assay type: cell-based, Staphylococcus epidermidis
Source text: as §1
as §2, with “growth. […]” for “growth.”

[14] = system: C. Albicans; assay type: cell-based, Candida albicans
Source text: as §1
as §2, with “growth. […]” for “growth.”

[15] = system: P. aeruginosa H188; assay type: cell-based, Pseudomonas aeruginosa
Source text: as §1
as §2, with “growth. […]” for “growth.”

[16] = system: C. xeroses; assay type: cell-based, Corynebacterium xerosis
Source text: as §1
as §2, with “growth. […]” for “growth.”

CC(C)C[C@@H]1NC(=O)[C@H](CCCCN)NC(=O)[C@H](C(C)C)NC(=O)[C@@H]2CCCN2C(=O)[C@@H](Cc2ccccc2)NC(=O)[C@H](CC(C)C)NC(=O)[C@H](CCCCN)NC(=O)[C@H](C(C)C)NC(=O)[C@H](CCCCN)NC(=O)[C@@H]2CCCN2C(=O)[C@@H](Cc2ccccc2)NC(=O)[C@H](CCCCN)NC1=O [GS12F]
Therapeutic index, gram-negative [1]: 25
Therapeutic index, gram-positive [2]: 3.6
Therapeutic index, yeast [3]: 30

CC(C)C[C@@H]1NC(=O)[C@H](CCCCN)NC(=O)[C@@H]2CCCN2C(=O)[C@@H](Cc2ccc(O)cc2)NC(=O)[C@H](CCCCN)NC(=O)[C@H](C(C)C)NC(=O)[C@H](CCCCN)NC(=O)[C@H](CC(C)C)NC(=O)[C@@H]2CCCN2C(=O)[C@@H](Cc2ccc(O)cc2)NC(=O)[C@H](C(C)C)NC(=O)[C@H](CCCCN)NC1=O [GS12LV]
Therapeutic index, gram-negative [1]: 3.7
Therapeutic index, gram-positive [2]: 0.4
Therapeutic index, yeast [3]: 1.8

CC(C)C[C@@H]1NC(=O)[C@H](CCCCN)NC(=O)[C@H](C(C)C)NC(=O)[C@@H]2CCCN2C(=O)[C@@H](Cc2ccc(O)cc2)NC(=O)[C@H](CC(C)C)NC(=O)[C@H](CCCCN)NC(=O)[C@H](C(C)C)NC(=O)[C@H](CCCCN)NC(=O)[C@@H]2CCCN2C(=O)[C@@H](Cc2ccc(O)cc2)NC(=O)[C@H](CCCCN)NC1=O [GS12]
Therapeutic index, gram-negative [1]: 7.8
Therapeutic index, gram-positive [2]: 1.0
Therapeutic index, yeast [3]: 6.0

CC(C)C[C@@H]1NC(=O)[C@H](CCCCN)NC(=O)[C@H](CC(C)C)NC(=O)[C@@H]2CCCN2C(=O)[C@@H](Cc2ccccc2)NC(=O)[C@H](CC(C)C)NC(=O)[C@@H](CCCCN)NC(=O)[C@H](CC(C)C)NC(=O)[C@H](CCCCN)NC(=O)[C@H](CC(C)C)NC(=O)[C@@H]2CCCN2C(=O)[C@@H](Cc2ccccc2)NC(=O)[C@H](CC(C)C)NC(=O)[C@H](CCCCN)NC1=O [Y2/F2 V3/L3]
Therapeutic Index = hemolytic activity/antibacterial activity [4]: 1.4
Therapeutic Index = hemolytic activity/antibacterial activity [5]: 0.4
Therapeutic Index = hemolytic activity/antibacterial activity [6]: 1
Therapeutic Index = hemolytic activity/antibacterial activity [7]: 8.3
Therapeutic Index = hemolytic activity/antibacterial activity [8]: 1
Therapeutic Index = hemolytic activity/antibacterial activity [9]: 2
Therapeutic Index = hemolytic activity/antibacterial activity [10]: 1.4
Therapeutic Index = hemolytic activity/antibacterial activity [11]: 1.4
Therapeutic Index = hemolytic activity/antibacterial activity [12]: 6.3
Therapeutic Index = hemolytic activity/antibacterial activity [13]: 6.3
Therapeutic Index = hemolytic activity/antibacterial activity [14]: 4
Therapeutic Index = hemolytic activity/antibacterial activity [15]: 4
Therapeutic Index = hemolytic activity/antibacterial activity [16]: 12.5

CC(C)C[C@@H]1NC(=O)[C@H](C(C)C)NC(=O)[C@H](CC(C)C)NC(=O)[C@@H]2CCCN2C(=O)[C@@H](Cc2ccc(O)cc2)NC(=O)[C@H](C(C)C)NC(=O)[C@H](CC(C)C)NC(=O)[C@H](C(C)C)NC(=O)[C@H](CCCCN)NC(=O)[C@H](CCCCN)NC(=O)[C@@H]2CCCN2C(=O)[C@@H](Cc2ccc(O)cc2)NC(=O)[C@H](CCCCN)NC(=O)[C@H](CCCCN)NC1=O [GS14napol]
Therapeutic Index = hemolytic activity/antibacterial activity [4]: 45
Therapeutic Index = hemolytic activity/antibacterial activity [5]: 16
Therapeutic Index = hemolytic activity/antibacterial activity [6]: 32
Therapeutic Index = hemolytic activity/antibacterial activity [7]: 11
Therapeutic Index = hemolytic activity/antibacterial activity [8]: 16
Therapeutic Index = hemolytic activity/antibacterial activity [9]: <4
Therapeutic Index = hemolytic activity/antibacterial activity [10]: 4
Therapeutic Index = hemolytic activity/antibacterial activity [11]: <5
Therapeutic Index = hemolytic activity/antibacterial activity ([12]; E. coli DC2, 400 μg/ml used for MIC >200 μg/ml, 1600 μg/ml for hemolytic activity >800 μg/ml): 200
Therapeutic Index = hemolytic activity/antibacterial activity [13]: 32
Therapeutic Index = hemolytic activity/antibacterial activity [14]: 22
Therapeutic Index = hemolytic activity/antibacterial activity [15]: 90
Therapeutic Index = hemolytic activity/antibacterial activity [16]: 1300

CC(C)C[C@@H]1NC(=O)[C@H](CCCCN)NC(=O)[C@H](C)NC(=O)[C@@H]2CCCN2C(=O)[C@@H](Cc2ccc(O)cc2)NC(=O)[C@H](CC(C)C)NC(=O)[C@H](CCCCN)NC(=O)[C@H](C)NC(=O)[C@H](CCCCN)NC(=O)[C@H](CC(C)C)NC(=O)[C@@H]2CCCN2C(=O)[C@@H](Cc2ccc(O)cc2)NC(=O)[C@H](C)NC(=O)[C@@H](CCCCN)NC1=O [V3/A3]
Therapeutic Index = hemolytic activity/antibacterial activity [4]: 130
Therapeutic Index = hemolytic activity/antibacterial activity [5]: 46
Therapeutic Index = hemolytic activity/antibacterial activity [6]: 260
Therapeutic Index = hemolytic activity/antibacterial activity [7]: 4
Therapeutic Index = hemolytic activity/antibacterial activity [8]: 21
Therapeutic Index = hemolytic activity/antibacterial activity [9]: 4
Therapeutic Index = hemolytic activity/antibacterial activity [10]: 4
Therapeutic Index = hemolytic activity/antibacterial activity [11]: 4
Therapeutic Index = hemolytic activity/antibacterial activity [12]: 180
Therapeutic Index = hemolytic activity/antibacterial activity [13]: 32
Therapeutic Index = hemolytic activity/antibacterial activity [14]: 32
Therapeutic Index = hemolytic activity/antibacterial activity [15]: 89
Therapeutic Index = hemolytic activity/antibacterial activity [16]: 520
Increase in therapeutic index over GS14K4 ([16]; C. xeroses): approximately 4 fold

CC(C)[C@@H]1NC(=O)[C@H](CCCCN)NC(=O)[C@H](C)NC(=O)[C@@H]2CCCN2C(=O)[C@@H](Cc2ccc(O)cc2)NC(=O)[C@H](C(C)C)NC(=O)[C@@H](CCCCN)NC(=O)[C@H](C)NC(=O)[C@H](CCCCN)NC(=O)[C@H](C(C)C)NC(=O)[C@@H]2CCCN2C(=O)[C@@H](Cc2ccc(O)cc2)NC(=O)[C@H](C)NC(=O)[C@H](CCCCN)NC1=O [L3/A3]
Therapeutic Index = hemolytic activity/antibacterial activity [4]: 8
Therapeutic Index = hemolytic activity/antibacterial activity [5]: 4
Therapeutic Index = hemolytic activity/antibacterial activity [6]: 16
Therapeutic Index = hemolytic activity/antibacterial activity [7]: 4
Therapeutic Index = hemolytic activity/antibacterial activity [8]: 8
Therapeutic Index = hemolytic activity/antibacterial activity [9]: 4
Therapeutic Index = hemolytic activity/antibacterial activity [10]: 4
Therapeutic Index = hemolytic activity/antibacterial activity [11]: 4
Therapeutic Index = hemolytic activity/antibacterial activity [12]: 8
Therapeutic Index = hemolytic activity/antibacterial activity [13]: 4
Therapeutic Index = hemolytic activity/antibacterial activity [14]: 4
Therapeutic Index = hemolytic activity/antibacterial activity [15]: 21
Therapeutic Index = hemolytic activity/antibacterial activity [16]: 16

C[C@@H]1NC(=O)[C@H](CCCCN)NC(=O)[C@H](C)NC(=O)[C@@H]2CCCN2C(=O)[C@@H](Cc2ccc(O)cc2)NC(=O)[C@H](C)NC(=O)[C@@H](CCCCN)NC(=O)[C@H](C)NC(=O)[C@H](CCCCN)NC(=O)[C@H](C)NC(=O)[C@@H]2CCCN2C(=O)[C@@H](Cc2ccc(O)cc2)NC(=O)[C@H](C)NC(=O)[C@H](CCCCN)NC1=O [V3L3/A6]
Therapeutic Index = hemolytic activity/antibacterial activity [4]: 4
Therapeutic Index = hemolytic activity/antibacterial activity [5]: 4
Therapeutic Index = hemolytic activity/antibacterial activity [6]: 4
Therapeutic Index = hemolytic activity/antibacterial activity [7]: 4
Therapeutic Index = hemolytic activity/antibacterial activity [8]: 4
Therapeutic Index = hemolytic activity/antibacterial activity [9]: 4
Therapeutic Index = hemolytic activity/antibacterial activity [10]: 4
Therapeutic Index = hemolytic activity/antibacterial activity [11]: 4
Therapeutic Index = hemolytic activity/antibacterial activity [12]: 4
Therapeutic Index = hemolytic activity/antibacterial activity [13]: 4
Therapeutic Index = hemolytic activity/antibacterial activity [14]: 4
Therapeutic Index = hemolytic activity/antibacterial activity [15]: 21
Therapeutic Index = hemolytic activity/antibacterial activity [16]: 8
